No constants are given. Whether binding was seen depends on the method and setting. In cells and extracts the contact can be indirect. Binding can be weak; no strength is given. Sequences can lack the tags named with a protein.
Assays:
[1] = target: HA-c-Myc-(204–295aa) deletion (human) (UniProt P01106); experiment: co-IP; HCT116 cells transfected with plasmids of HA-c-Myc full-length or deletion constructs; IP with anti-HA antibody, western blotting
[2] = target: HA-c-Myc-(413–434aa) deletion (human) (UniProt P01106); experiment: as above

The chains behind the UniProt entries cited, without tags or fusion partners. Where a name states a change or a piece, a line headed by the entry shows the natural chain unless it says otherwise.
UniProt P01106: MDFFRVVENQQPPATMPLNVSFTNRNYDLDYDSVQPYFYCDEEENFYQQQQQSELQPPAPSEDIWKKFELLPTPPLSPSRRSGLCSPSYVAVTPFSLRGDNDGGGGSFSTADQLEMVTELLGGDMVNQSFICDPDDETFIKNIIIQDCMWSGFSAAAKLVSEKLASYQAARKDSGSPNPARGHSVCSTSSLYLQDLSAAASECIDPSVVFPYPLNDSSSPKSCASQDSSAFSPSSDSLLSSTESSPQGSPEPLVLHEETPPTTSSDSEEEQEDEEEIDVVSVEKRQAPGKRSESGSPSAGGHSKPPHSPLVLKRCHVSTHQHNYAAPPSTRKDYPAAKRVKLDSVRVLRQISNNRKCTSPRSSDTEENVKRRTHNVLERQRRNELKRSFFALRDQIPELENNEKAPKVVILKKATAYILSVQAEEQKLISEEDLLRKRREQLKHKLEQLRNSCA

B1: FSTL3 protein found with HA-c-Myc constructs in HCT116 cells (protein, UniProt O95633 27-263)
chain: MGSGNPAPGGVCWLQQGQEATCSLVLQTDVTRAECCASGNIDTAWSNLTHPGNKINLLGFLGLVHCLPCKDSCDGVECGPGKACRMLGGRPRCECAPDCSGLPARLQVCGSDGATYRDECELRAARCRGHPDLSVMYRGRCRKSCEHVVCPRPQSCVVDQTGSAHCVVCRAAPCPVPSSPGQELCGNNNVTYISSCHMRQATCFLGRSIGVRHAGSCAGTPEEPPGGESAEEEENFV
In the case of B1, the binding [1] is reported as “binds” and the binding [2] is reported as “binds”.

Source: paper PMC10834545
